Results reported in publication PMC12137620, “Targeting the MDK/c‐Myc complex to overcome temozolomide resistance in glioma” (Clinical and Translational Medicine, 2025).
No constants are given. Whether binding was seen depends on the method and setting. Binding seen in cells or lysates may run through a third protein. Some entries that bind do so weakly or less than the wild type. For some assays here: Sequences can lack the tags named with a protein.

Amino acid sequences for entries named in this document (tags omitted).
UniProt P01106: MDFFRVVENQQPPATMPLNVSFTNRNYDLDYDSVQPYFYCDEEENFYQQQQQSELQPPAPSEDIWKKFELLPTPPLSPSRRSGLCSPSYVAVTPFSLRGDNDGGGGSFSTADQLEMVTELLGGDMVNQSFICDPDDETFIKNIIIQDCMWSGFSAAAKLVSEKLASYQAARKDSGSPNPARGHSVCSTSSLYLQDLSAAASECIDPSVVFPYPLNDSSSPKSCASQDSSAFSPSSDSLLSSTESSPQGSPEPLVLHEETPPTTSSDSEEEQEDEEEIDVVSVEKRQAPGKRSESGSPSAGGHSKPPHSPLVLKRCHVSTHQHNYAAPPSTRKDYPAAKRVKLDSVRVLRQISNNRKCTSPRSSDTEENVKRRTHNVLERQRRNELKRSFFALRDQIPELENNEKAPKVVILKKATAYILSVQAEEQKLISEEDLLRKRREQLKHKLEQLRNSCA

Columns and labels:
[1] = molecular target: T1, FLAG-MDK (midkine) (human) (UniProt P21741); test: co-IP; lysates (IP lysis buffer) of U118MG, SF126, U251 and U87 cells overexpressing MDK; MDK or c-Myc antibody or control IgG on protein A/G magnetic beads, 2 h at 4°C; Western blot
T1 sequence: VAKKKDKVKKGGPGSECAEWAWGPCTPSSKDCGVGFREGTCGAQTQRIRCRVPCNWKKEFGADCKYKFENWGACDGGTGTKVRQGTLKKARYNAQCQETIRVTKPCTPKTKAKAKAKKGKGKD

[2] = molecular target: T2, MDK, endogenous in glioma cells (human (endogenous in SF126, U118MG, U251)) (UniProt P21741); test: proximity ligation; Duolink In Situ PLA; fixed, permeabilised SF126, U118MG and U251 cells; primary antibodies against MDK and c-Myc; endogenous proteins
T2 sequence: T1 sequence

binding [1]: binds
binding [2]: binds
Substance: c-Myc, endogenous in glioma cells (from UniProt P01106 1-454)
